Patent US20110201603A1, “Novel Acylaminobenzamide Derivatives” (Bayer CropScience AG, priority 2008, published 2011)
Some entries share one result that the patent states for a list of compounds.

Assays:
Boophilus microplus = Boophilus microplus test (injection); type: in vivo; settings: application rate of 20 μg/animal; injection into adult engorged female ticks; after 7 days
Experimental: (§1) Solvent: dimethyl sulfoxide
To produce a suitable preparation of active compound, 10 mg of active compound are dissolved in 0.5 ml solvent, and the concentrate is diluted with solvent to the desired concentration. Five adult engorged female ticks (Boophilus microplus) are injected with compound solution into the abdomen. Ticks are transferred into replica plates and incubated in a climate chamber for a period of time. Egg deposition of fertile eggs is monitored. After 7 days mortality in % is determined. 100% means that all eggs are infertile; 0% means that all eggs are fertile.

Lucilia cuprina larvae = test: Lucilia cuprina test; type: in vivo; settings: application rate of 100 ppm; larvae on minced horse meat; after 2 days
Experimental: as §1
To produce a suitable preparation of active compound, 10 mg of active compound are dissolved in 0.5 ml solvent, and the concentrate is diluted with water to the desired concentration. Approximately 20-30 (Lucilia cuprina larvae) are transferred into a test tube containing 1 cm^3 of minced horse meat and 0.5 ml aqueous dilution of test compound. After 2 days mortality in % is determined. 100% means that all the larvae have been killed; 0% means that none of the larvae have been killed.

Row | Structure (SMILES) | activity (mortality in %; 100% means all eggs are infertile) (Boophilus microplus) [%] | activity (mortality in %) (Lucilia cuprina larvae) [%]
1 | Cc1cc(C(n2cnc(C(F)(F)F)n2)(C(F)(F)F)C(F)(F)F)cc(C)c1NC(=O)c1cccc(NC(=O)c2cccnc2Cl)c1 [2-153] | 100 | –
2 | C#CCOC(c1cc(I)c(NC(=O)c2cccc(NC(=O)c3cccnc3Cl)c2)c(I)c1)(C(F)(F)F)C(F)(F)F [1-80] | 100 | 100
3 | Cc1cc(C(n2cc(I)c(C(F)(F)F)n2)(C(F)(F)F)C(F)(F)F)cc(C)c1NC(=O)c1cccc(NC(=O)c2cccnc2Cl)c1 [2-119] | 100 | 100
4 | CCOC(=O)Nc1cccc(C(=O)Nc2c(I)cc(C(OCC)(C(F)(F)F)C(F)(F)F)cc2I)c1 [1-24] | 100 | 100
5 | Cc1cc(C(n2nc(C(F)(F)F)cc2C(F)(F)F)(C(F)(F)F)C(F)(F)F)cc(C)c1NC(=O)c1cccc(NC(=O)c2cccnc2F)c1 [2-125] | 100 | 100
6 | CCc1cc(C(n2cc(C(F)(F)F)cn2)(C(F)(F)F)C(F)(F)F)cc(C)c1NC(=O)c1cccc(N)c1 [11-114] | – | 100
7 | CCOC(c1cc(I)c(NC(=O)c2cccc(NC(=O)c3cccc(F)c3)c2)c(I)c1)(C(F)(F)F)C(F)(F)F [1-27] | 100 | 100
8 | CCOC(c1cc(I)c(NC(=O)c2cccc(NC(=O)c3cccnc3F)c2)c(I)c1)(C(F)(F)F)C(F)(F)F [1-59] | 100 | 100
9 | Cc1cc(C(n2ccc(C(F)(F)F)n2)(C(F)(F)F)C(F)(F)F)cc(C)c1NC(=O)c1cccc(NC(=O)c2cccnc2F)c1 [2-98] | 100 | 100
10 | CCOC(c1cc(I)c(NC(=O)c2cccc(NC(=O)c3ccc(Cl)nc3)c2)c(I)c1)(C(F)(F)F)C(F)(F)F [1-60] | 100 | 100
11 | CCOC(c1cc(I)c(NC(=O)c2cccc(NC(=O)c3cccnc3Cl)c2)c(I)c1)(C(F)(F)F)C(F)(F)F [1-40] | 100 | 100
12 | Cc1cc(C(n2cc(C(F)(F)F)cn2)(C(F)(F)F)C(F)(F)F)cc(C)c1NC(=O)c1cccc(NC(=O)c2cccnc2Cl)c1 [2-109] | 100 | 100
13 | Cc1cc(C(n2cc(C(F)(F)F)cn2)C(F)(F)C(F)(F)F)cc(C)c1NC(=O)c1cccc(NC(=O)c2cccnc2Cl)c1 (stereo not drawn) [2-104] | 100 | –
14 | Cc1cc(C(n2cc(Cl)c(C(F)(F)C(F)(F)F)n2)(C(F)(F)F)C(F)(F)F)cc(C)c1NC(=O)c1cccc(NC(=O)c2cccnc2Cl)c1 [2-120] | 100 | –
15 | Cc1cc(C(n2cncn2)(C(F)(F)F)C(F)(F)F)cc(C)c1NC(=O)c1cccc(NC(=O)c2cccnc2Cl)c1 [2-148] | 100 | –
16 | CCc1cc(C(n2cc(Br)cn2)C(F)(F)F)cc(C)c1NC(=O)c1cccc(NC(=O)c2cccnc2Cl)c1 (stereo not drawn) [2-77] | 100 | –
17 | CCOC(c1cc(I)c(NC(=O)c2cccc(NC(=O)c3ccccc3F)c2)c(I)c1)(C(F)(F)F)C(F)(F)F [1-26] | 100 | 100
18 | O=C(Nc1c(Br)cc(C(c2ccccc2)(n2ccc(C(F)(F)F)n2)C(F)(F)F)cc1Br)c1cccc(NC(=O)c2cccnc2Cl)c1 (single isomer, unassigned) [2-100] | 100 | 100
19 | Cc1cc(C(n2nc(C(F)(F)F)cc2C(F)(F)F)(C(F)(F)F)C(F)(F)F)cc(C)c1NC(=O)c1cccc(NC(=O)c2ccccc2F)c1 [2-124] | 100 | –
20 | Cc1cc(C(n2cc(Cl)c(C(F)(F)F)n2)(C(F)(F)F)C(F)(F)F)cc(C)c1NC(=O)c1cccc(NC(=O)c2cccnc2Cl)c1 [2-118] | 100 | 100
21 | COC(c1cc(I)c(NC(=O)c2cccc(NC(=O)c3cccnc3Cl)c2)c(I)c1)(C(F)(F)F)C(F)(F)F [1-6] | 100 | 100
22 | CCOC(c1cc(I)c(NC(=O)c2cccc(NC(=O)c3ccccc3)c2)c(I)c1)(C(F)(F)F)C(F)(F)F [1-25] | 100 | 100
23 | Cc1cc(C(n2cc(C(F)(F)F)cn2)C(F)(F)F)cc(C)c1NC(=O)c1cccc(NC(=O)c2cccnc2F)c1 (stereo not drawn) [2-103] | 100 | –
24 | Cc1cc(C(n2cc(C(F)(F)F)cn2)(C(F)(F)F)C(F)(F)F)cc(C)c1NC(=O)c1cccc(NC(=O)c2cccnc2F)c1 [2-108] | 100 | 100
25 | Cc1cc(C(n2cncn2)(C(F)(F)F)C(F)(F)F)cc(Br)c1NC(=O)c1cccc(NC(=O)c2ccccc2F)c1 [2-151] | 100 | 100
26 | Cc1cc(C(n2cc(Cl)cn2)(C(F)(F)F)C(F)(F)F)cc(C)c1NC(=O)c1cccc(NC(=O)c2cccnc2Cl)c1 [2-51] | 100 | 100
27 | Cc1cc(C(n2cc(Br)cn2)(C(F)(F)F)C(F)(F)F)cc(C)c1NC(=O)c1cccc(NC(=O)c2cccnc2Cl)c1 [2-84] | 100 | 100
28 | CCOC(c1cc(I)c(NC(=O)c2cccc(NC(=O)c3ccc(Cl)nc3Cl)c2)c(I)c1)(C(F)(F)F)C(F)(F)F [1-61] | 100 | 100
